In PMC7862700:
The other results are listed elsewhere or left out. The source does not settle which construct or isoform was used.

target: T1, ELF2 (UniProt Q15723); assay: DAPPL (digital affinity profiling via proximity ligation, sequencing); conditions: 10 mM Tris-HCl pH 7.5, 50 mM NaCl, 1 mM DTT, 4% glycerol, room temperature, 30 min; GST-TFs on glutathione beads, 16-mer random dsDNA library, 0.1% …; high values mean tight binding; double strand, one strand shown; scale: fold enrichment (6-mer frequency, TF over GST control)
T1 sequence: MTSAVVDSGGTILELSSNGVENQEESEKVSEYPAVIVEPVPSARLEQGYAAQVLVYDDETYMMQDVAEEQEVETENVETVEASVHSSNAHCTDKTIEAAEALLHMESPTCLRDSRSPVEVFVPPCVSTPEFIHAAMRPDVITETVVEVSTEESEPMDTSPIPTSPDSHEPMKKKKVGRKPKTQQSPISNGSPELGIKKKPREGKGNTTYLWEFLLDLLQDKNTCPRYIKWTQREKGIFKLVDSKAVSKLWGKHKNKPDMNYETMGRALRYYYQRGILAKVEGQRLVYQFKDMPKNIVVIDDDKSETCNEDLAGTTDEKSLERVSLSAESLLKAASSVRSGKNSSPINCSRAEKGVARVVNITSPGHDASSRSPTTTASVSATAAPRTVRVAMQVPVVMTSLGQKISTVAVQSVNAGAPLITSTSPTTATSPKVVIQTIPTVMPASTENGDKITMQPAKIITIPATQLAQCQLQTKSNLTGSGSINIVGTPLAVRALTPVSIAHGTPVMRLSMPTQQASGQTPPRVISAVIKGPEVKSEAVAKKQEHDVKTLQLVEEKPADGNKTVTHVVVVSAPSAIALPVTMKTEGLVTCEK

Sequence	binding signal
TGGCTC	1.34
CGTCCT	1.35
CCGGCT	1.94
TTGGCA	1.12
GTAGAA	0.915
GGCATT	1.06
TGCTTA	1.01
TCTACA	1.17
GCCTGG	0.934
AATTCG	1.27
GCCAGA	0.638
TCGTAT	0.993
AGAATG	0.919
CTGCAT	1.36
TAGCTC	1.15
CTGTAC	1.34
TTTGCA	1.23
GTTCGC	0.996
ACGTCT	1.09
AGAGCT	0.932

Sequence	binding signal
CATGCG	1
CTTACT	1.27
AACTCT	1.27
CGTACA	1.15
AGAAAC	0.969
TCGCGA	0.833
CGCAAA	0.995
TTTTCG	1.16
AATATC	1.66
GTTCGA	1.06
ATATTC	1.32
TCATCA	1.08
TGATGC	1.49
AACTAC	1.5
GGGAAA	1.07
TGACTA	1.11
CGAGCA	1.03
TCCGTC	1.37
CGAATT	1.2
TACACA	1.17

Not a retest: an excerpt of the list.
Sequence	binding signal
AACTAC	1.5
GGGAAA	1.07
